Assay results: PMC12381239

Amino acid sequences for entries named in this document (tags omitted).
UniProt Q13283: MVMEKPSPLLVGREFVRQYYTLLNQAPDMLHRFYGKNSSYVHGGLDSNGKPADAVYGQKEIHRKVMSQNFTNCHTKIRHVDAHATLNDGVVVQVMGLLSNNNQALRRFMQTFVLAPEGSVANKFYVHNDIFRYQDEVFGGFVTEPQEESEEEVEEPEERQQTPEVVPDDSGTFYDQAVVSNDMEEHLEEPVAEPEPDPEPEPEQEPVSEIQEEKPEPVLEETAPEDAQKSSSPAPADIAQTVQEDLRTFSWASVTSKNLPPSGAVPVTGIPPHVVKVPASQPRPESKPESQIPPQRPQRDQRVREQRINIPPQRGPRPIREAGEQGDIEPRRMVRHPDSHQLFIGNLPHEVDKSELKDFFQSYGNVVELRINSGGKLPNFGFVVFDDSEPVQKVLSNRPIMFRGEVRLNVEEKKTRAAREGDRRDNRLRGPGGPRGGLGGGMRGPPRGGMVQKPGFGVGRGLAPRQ

Molecular target: T1, asparagine endopeptidase (AEP) (human) (UniProt Q99538)
T1 sequence: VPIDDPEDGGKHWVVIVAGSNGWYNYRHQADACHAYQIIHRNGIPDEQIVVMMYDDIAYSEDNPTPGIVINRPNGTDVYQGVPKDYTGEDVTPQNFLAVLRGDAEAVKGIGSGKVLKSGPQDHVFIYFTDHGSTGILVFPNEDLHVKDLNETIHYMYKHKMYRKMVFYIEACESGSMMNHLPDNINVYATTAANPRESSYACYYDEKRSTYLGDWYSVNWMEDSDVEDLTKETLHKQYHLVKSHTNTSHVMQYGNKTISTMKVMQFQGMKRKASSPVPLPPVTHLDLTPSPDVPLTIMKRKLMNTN
Assay: affinity purification with mass spectrometry; IP with anti-AEP antibody (1:50) from AEP-KO U2OS infected with human AEP lentivirus, 50 umol/L cisplatin or vehicle for 6 h; IP buffer; LC-MS/MS

binding: binds
Substance: Ras-GTPase-activating protein (GAP)-binding protein 1 (G3BP1) (from UniProt Q13283 1-466)

No constants are given. Whether binding was seen depends on the method and setting. In cells and extracts the contact can be indirect. Here binding means that the protein was enriched with, or labelled near, the bait; the list need not be complete.
